From patent US10513547B2, “Peptides and combination of peptides and scaffolds thereof for use in immunotherapy against colorectal carcinoma (CRC) and other cancers” (Immatics Biotechnologies GmbH, priority 2015, dated 2019)

Test system: HLA molecules from shock-frozen tissue samples (CRC, other tumors, normal tissues)
Assay: Identification and label-free relative LC-MS quantitation of HLA-presented tumor associated peptides (presentation profiles, XPRESIDENT)
Design: species or system human; key to Peptide Presentation (presentation score): very highly over-presented on tumors compared to a panel of normal tissues (+++); highly over-presented on tumors compared to a panel of normal tissues (++); over-presented on tumors compared to a panel of normal tissues (+)
Settings: for Other relevant organs/diseases: additional tumor types: over-presented on more than 5% of measured tumor samples, or presented on more than 5% with ratio of geometric means tumor vs normal larger than 3; for Additional Entities (additional tumor types on which the peptide was found): over-presentation on more than 5% of the measured tumor samples, or presentation on more than 5% of the measured tumor samples with ratio of geometric means tumor vs normal tissues larger than 3; for Peptide Presentation (presentation score): over-presentation on tumors compared to a panel of normal tissues; for number of cancer tissues with detectable presentation of the peptide: all samples with detectable presentation, all tumor types; for number of normal tissues with detectable presentation of the peptide: normal tissue panel as in FIG. 1A-C

| Substance | Other relevant organs/diseases | Additional Entities (additional tumor types on which the peptide was found) | Peptide Presentation (presentation score) | further results |
| --- | --- | --- | --- | --- |
| 11 (YLFEKTFNM; listed as Homo sapiens) [compound 11] | Lung, Brain, Esophagus | SCLC, Urinary bladder cancer | +++ |  |
| SEQ ID NO.: 138 (KQFEGTVEI; listed as Homo sapiens) |  |  |  | additionally detected on brain cancers (positive/measured samples) (brain cancers): 1/28; additionally detected on esophageal cancers (positive/measured samples) (esophageal cancers): 1/15; additionally detected on lung cancers (positive/measured samples) (lung cancers): 3/91; additionally detected on stomach cancers (positive/measured samples) (stomach cancers): 1/45 |
| 23 (FLDANGHFV; listed as Homo sapiens) [compound 23] |  | GC, Esophageal Cancer, Gallbladder Cancer, Bile Duct Cancer | + |  |
| 230 (AMSSKFFLV; listed as Homo sapiens) [compound 230] | Lung, Brain, Stomach, Liver, Pancreas, Prostate, Breast, Ovary, Esophagus |  | ++ |  |
| 134 (GVAGGSILKGV; listed as Homo sapiens) [compound 134] | Lung, Liver, Melanoma, Ovary, Esophagus | CLL, BRCA, Urinary bladder cancer, Gallbladder Cancer, Bile Duct Cancer, NHL | +++ |  |
| 222 (GVIAEILRGV; listed as Homo sapiens) [compound 222] | Lung, Kidney, Brain, Liver |  |  |  |
| 66 (GLDDGPDFL; listed as Homo sapiens) [compound 66] |  | Melanoma | + |  |
| 198 (VLYGPDVPTI; listed as Homo sapiens) [compound 198] | Pancreas |  | ++ |  |
| 61 (KLLKLFQGV; listed as Homo sapiens) [compound 61] | Kidney | Melanoma, AML | +++ |  |
| 26 (GLASKENFSNVSL; listed as Homo sapiens) [compound 26] | Lung, Liver, Esophagus | Urinary bladder cancer, Uterine Cancer, Gallbladder Cancer, Bile Duct Cancer | +++ |  |
| 234 (KMFESFIESV; listed as Homo sapiens) [compound 234] | Lung, Kidney, Brain, Liver, Prostate, Ovary, Esophagus |  | ++ |  |
| 96 (KLYSRLVYV; listed as Homo sapiens) [compound 96] |  |  | ++ |  |
| 243 (TLMDMRLSQV; listed as Homo sapiens) [compound 243] | Lung, Kidney, Brain, Liver, Prostate, Ovary |  | + |  |
| 118 (LLADLKTMV; listed as Homo sapiens) [compound 118] | Brain, Leukocytes, Melanoma | NHL |  |  |
| SEQ ID NO.: 6 (FLAELPGSLSL; listed as Homo sapiens) |  |  |  | number of cancer tissues with detectable presentation of the peptide: 57; number of normal tissues with detectable presentation of the peptide: 2 |
| 167 (SVIDHIHLISV; listed as Homo sapiens) [compound 167] | Lung, Melanoma, Ovary | SCLC, BRCA |  |  |
| 145 (LLLEVVKQV; listed as Homo sapiens) [compound 145] |  | Gallbladder Cancer, Bile Duct Cancer, NHL | +++ |  |
| 199 (FLLEREQLL; listed as Homo sapiens) [compound 199] | Kidney, Leukocytes, Melanoma |  | +++ |  |
| 108 (SLAELVPGVGGI; listed as Homo sapiens) [compound 108] | Kidney, Brain, Liver, Ovary | BRCA |  |  |
| SEQ ID NO.: 31 (LLYGKYVSV; listed as Homo sapiens) |  |  |  | number of cancer tissues with detectable presentation of the peptide: 28; number of normal tissues with detectable presentation of the peptide: 0 |
| 46 (GLDDRYSLV; listed as Homo sapiens) [compound 46] | Esophagus | Urinary bladder cancer | + |  |
| 229 (YLLEKFVAV; listed as Homo sapiens) [compound 229] | Lung, Liver, Ovary |  | ++ |  |
| 216 (YLWDLDHGFAGV; listed as Homo sapiens) [compound 216] | Lung, Brain, Liver, Prostate, Melanoma, Ovary, Esophagus |  | +++ |  |

| Substance | Other relevant organs/diseases | Additional Entities (additional tumor types on which the peptide was found) | Peptide Presentation (presentation score) | further results |
| --- | --- | --- | --- | --- |
| 30 (GLSSAYGGL; listed as Homo sapiens) [compound 30] |  |  | +++ |  |
| 133 (RTFEKIEEV; listed as Homo sapiens) [compound 133] | Lung, Kidney, Brain, Stomach, Liver, Breast, MCC, Ovary, Esophagus | SCLC, Melanoma, Urinary bladder cancer, Uterine Cancer, AML, NHL | +++ |  |
| 181 (NLFDLGGQYLRV; listed as Homo sapiens) [compound 181] | Brain, Liver, Ovary | CLL, Melanoma, Urinary bladder cancer |  |  |
| 19 (RLYTKLLNEA; listed as Homo sapiens) [compound 19] | Brain, Esophagus | Melanoma, Urinary bladder cancer, Uterine Cancer, Gallbladder Cancer, Bile Duct Cancer | +++ |  |
| 7 (YLTRHLAVL; listed as Homo sapiens) [compound 7] |  |  | +++ |  |
| 35 (KLLDLTVRI; listed as Homo sapiens) [compound 35] |  | Gallbladder Cancer, Bile Duct Cancer | +++ |  |
| 132 (ALLNAILHSA; listed as Homo sapiens) [compound 132] | Lung, Brain, Liver, Ovary, Esophagus | SCLC, CLL, Melanoma, Urinary bladder cancer, Uterine Cancer, NHL, PC | +++ |  |
| 233 (RLDDLKMTV; listed as Homo sapiens) [compound 233] | Lung, Kidney, Pancreas, Breast, Ovary, Esophagus |  | ++ |  |
| 136 (KLFDIFSQQV; listed as Homo sapiens) [compound 136] | Liver | Urinary bladder cancer, Uterine Cancer, NHL | +++ |  |
| 260 (ALLAEGITWV; listed as Homo sapiens) [compound 260] | Liver |  |  |  |
| 169 (YLAHFIEGL; listed as Homo sapiens) [compound 169] | Brain, Liver, Leukocytes, Esophagus | Urinary bladder cancer, OC |  |  |
| 40 (ALSNVIHKV; listed as Homo sapiens) [compound 40] | Lung, Pancreas, Esophagus | Urinary bladder cancer | +++ |  |
| 207 (KLCEGFNEV; listed as Homo sapiens) [compound 207] | Brain, Liver |  | +++ |  |
| 173 (KLGDLMVLL; listed as Homo sapiens) [compound 173] | Leukocytes | Melanoma, AML, NHL | + |  |
| 148 (RLLENMTEVV; listed as Homo sapiens) [compound 148] | Liver | CLL, OC, Urinary bladder cancer, Uterine Cancer, NHL | ++ |  |
| 210 (KLAVALLAA; listed as Homo sapiens) [compound 210] | Lung, Kidney, Brain, Liver, Esophagus |  | +++ |  |
| 58 (AMADKMDMSL; listed as Homo sapiens) [compound 58] | Brain, Leukocytes, Melanoma | NSCLC, SCLC, BRCA, Urinary bladder cancer, Uterine Cancer, Gallbladder Cancer, Bile Duct Cancer, AML, NHL | + |  |
| 80 (QVDEVVDIMRV; listed as Homo sapiens) [compound 80] | Leukocytes | AML | ++ |  |
| 247 (SLDTLMTYV; listed as Homo sapiens) [compound 247] | Lung, Kidney, Brain, Pancreas, Prostate, Leukocytes, Esophagus |  | + |  |
| 25 (SLADRLIGV; listed as Homo sapiens) [compound 25] | Prostate, Ovary | SCLC, BRCA, Uterine Cancer | +++ |  |
| SEQ ID NO.: 192: peptide found in MMP12 (gene looked up) (KIQEMQHFL; listed as Homo sapiens) |  |  |  | number of cancer tissues with detectable presentation of the peptide: 44 |
| 194 (SLYKGLLSV; listed as Homo sapiens) [compound 194] | Lung, Kidney, Brain, Liver, Ovary, Esophagus |  | +++ |  |
